Test results from PMC8266168.
No constants are given. Whether binding was seen depends on the method and setting. Binding seen in cells or lysates may run through a third protein. Some binding calls cover weakened binding; strength is not graded here.

Target: T1, ETS proto-oncogene 1 (human (endogenous in HUVECs)) (UniProt P14921)
T1 sequence: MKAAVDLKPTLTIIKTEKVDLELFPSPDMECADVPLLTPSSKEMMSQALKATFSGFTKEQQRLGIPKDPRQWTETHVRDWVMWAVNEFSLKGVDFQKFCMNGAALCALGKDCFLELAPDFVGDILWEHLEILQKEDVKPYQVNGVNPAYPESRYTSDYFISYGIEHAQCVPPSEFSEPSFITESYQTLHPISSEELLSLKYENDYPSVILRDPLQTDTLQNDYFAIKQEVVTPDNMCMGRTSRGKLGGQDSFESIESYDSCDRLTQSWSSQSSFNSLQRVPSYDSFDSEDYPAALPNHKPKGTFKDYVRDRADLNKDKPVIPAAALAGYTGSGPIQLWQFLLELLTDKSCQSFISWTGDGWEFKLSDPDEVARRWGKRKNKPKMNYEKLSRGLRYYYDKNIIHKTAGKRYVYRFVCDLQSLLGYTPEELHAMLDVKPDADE
Assay: co-IP; endogenous IP from HUVEC cell protein extracts (lysis buffer with PMSF); specific primary antibodies and protein A/G Dynabeads, 4 °C for 12 h; input, IgG and IP extracts analysed by Western blot

binding: binds
B1: lysine methyltransferase 5A (protein, UniProt Q9NQR1 1-393)
chain: MGEGGAAAALVAAAAAAAAAAAAVVAGQRRRRLGRRARCHGPGRAAGGKMSKPCAVEAAAAAVAATAPGPEMVERRGPGRPRTDGENVFTGQSKIYSYMSPNKCSGMRFPLQEENSVTHHEVKCQGKPLAGIYRKREEKRNAGNAVRSAMKSEEQKIKDARKGPLVPFPNQKSEAAEPPKTPPSSCDSTNAAIAKQALKKPIKGKQAPRKKAQGKTQQNRKLTDFYPVRRSSRKSKAELQSEERKRIDELIESGKEEGMKIDLIDGKGRGVIATKQFSRGDFVVEYHGDLIEITDAKKREALYAQDPSTGCYMYYFQYLSKTYCVDATRETNRLGRLINHSKCGNCQTKLHDIDGVPHLILIASRDIAAGEELLYDYGDRSKASIEAHPWLKH
